Test results as given in the supplement of paper PMC12823440, “Inhibitors supercharge kinase turnover through native proteolytic circuits” (Nature, 2025).
Counter-ions that a name gives are not always drawn. Some of the results follow. Hit calls seldom repeat between salt and free forms of one compound.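 In K562 cells expressing nanoluciferase-fused kinases, luminescence was recorded at 4 h intervals between 2 and 18 h, normalized as percent of control with DMSO at 100% and a positive control at 0%. A significant (2 sigma) signal drop marks a time point as decreased. The authors' rule for a hit is not shown and takes in more than the number of time points.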

By UniProt entry, the sequences of proteins in these tests, tags left out. Where a name states a change or a piece, a line headed by the entry shows the natural chain unless it says otherwise.
UniProt P21860, whole entry: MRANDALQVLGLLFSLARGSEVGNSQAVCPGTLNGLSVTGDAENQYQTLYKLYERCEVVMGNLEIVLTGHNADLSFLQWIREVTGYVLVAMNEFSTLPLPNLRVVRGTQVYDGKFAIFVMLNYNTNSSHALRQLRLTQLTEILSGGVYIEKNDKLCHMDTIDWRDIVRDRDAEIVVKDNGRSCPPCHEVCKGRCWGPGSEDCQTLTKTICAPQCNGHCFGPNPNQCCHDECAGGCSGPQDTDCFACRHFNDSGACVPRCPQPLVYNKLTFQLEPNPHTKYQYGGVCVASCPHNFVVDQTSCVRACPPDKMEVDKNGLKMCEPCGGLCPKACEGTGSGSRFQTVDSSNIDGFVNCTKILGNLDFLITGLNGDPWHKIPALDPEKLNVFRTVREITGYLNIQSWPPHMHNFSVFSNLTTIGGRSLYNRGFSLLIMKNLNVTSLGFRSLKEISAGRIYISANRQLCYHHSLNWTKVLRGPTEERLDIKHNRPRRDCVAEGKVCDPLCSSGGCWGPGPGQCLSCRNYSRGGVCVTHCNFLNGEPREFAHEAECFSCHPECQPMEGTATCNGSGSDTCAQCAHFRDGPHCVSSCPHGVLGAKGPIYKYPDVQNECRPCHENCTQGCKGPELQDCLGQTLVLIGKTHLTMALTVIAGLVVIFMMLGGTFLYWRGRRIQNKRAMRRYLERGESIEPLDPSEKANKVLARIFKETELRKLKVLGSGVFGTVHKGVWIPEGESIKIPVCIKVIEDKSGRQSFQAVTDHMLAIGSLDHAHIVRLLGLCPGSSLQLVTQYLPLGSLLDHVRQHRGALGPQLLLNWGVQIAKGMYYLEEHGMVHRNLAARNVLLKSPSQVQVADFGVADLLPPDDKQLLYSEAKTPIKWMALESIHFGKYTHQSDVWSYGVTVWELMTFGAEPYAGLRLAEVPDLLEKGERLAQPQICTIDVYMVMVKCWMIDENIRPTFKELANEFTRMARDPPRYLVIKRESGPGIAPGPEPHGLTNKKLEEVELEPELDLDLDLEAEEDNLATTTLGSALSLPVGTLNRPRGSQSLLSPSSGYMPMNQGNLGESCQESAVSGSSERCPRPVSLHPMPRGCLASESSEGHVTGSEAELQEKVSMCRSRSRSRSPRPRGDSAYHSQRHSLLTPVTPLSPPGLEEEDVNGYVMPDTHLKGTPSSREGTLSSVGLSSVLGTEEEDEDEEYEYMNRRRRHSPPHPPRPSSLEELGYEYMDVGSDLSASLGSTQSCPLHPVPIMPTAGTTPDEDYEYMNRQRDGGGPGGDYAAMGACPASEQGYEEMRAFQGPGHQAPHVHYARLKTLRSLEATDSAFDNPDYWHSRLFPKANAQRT
UniProt O75460: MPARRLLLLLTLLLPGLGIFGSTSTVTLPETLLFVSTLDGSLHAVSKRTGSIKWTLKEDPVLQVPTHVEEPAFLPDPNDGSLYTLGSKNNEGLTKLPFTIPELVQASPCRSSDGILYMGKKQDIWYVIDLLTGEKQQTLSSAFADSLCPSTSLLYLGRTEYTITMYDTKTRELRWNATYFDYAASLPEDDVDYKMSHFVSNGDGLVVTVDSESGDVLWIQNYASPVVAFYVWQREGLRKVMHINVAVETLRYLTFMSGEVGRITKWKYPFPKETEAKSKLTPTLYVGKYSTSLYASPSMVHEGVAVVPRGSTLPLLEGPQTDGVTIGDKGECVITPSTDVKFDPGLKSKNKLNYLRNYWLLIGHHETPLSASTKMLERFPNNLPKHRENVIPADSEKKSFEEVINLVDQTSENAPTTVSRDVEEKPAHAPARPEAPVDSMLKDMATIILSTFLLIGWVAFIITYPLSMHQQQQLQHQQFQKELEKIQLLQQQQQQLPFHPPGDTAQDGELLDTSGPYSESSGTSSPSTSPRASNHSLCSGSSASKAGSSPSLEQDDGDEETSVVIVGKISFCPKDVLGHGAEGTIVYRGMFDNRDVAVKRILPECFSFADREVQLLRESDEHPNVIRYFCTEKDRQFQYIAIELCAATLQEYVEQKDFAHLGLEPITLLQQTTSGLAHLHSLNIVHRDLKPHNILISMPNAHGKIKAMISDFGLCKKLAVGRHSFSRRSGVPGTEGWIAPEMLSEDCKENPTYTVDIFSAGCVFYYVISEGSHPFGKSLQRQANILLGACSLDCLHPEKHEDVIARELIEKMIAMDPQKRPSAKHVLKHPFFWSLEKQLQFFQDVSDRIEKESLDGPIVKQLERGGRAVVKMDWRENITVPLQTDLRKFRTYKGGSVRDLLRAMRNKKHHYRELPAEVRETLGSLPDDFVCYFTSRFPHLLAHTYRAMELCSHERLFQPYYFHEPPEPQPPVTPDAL
UniProt P11362, whole entry, looked up: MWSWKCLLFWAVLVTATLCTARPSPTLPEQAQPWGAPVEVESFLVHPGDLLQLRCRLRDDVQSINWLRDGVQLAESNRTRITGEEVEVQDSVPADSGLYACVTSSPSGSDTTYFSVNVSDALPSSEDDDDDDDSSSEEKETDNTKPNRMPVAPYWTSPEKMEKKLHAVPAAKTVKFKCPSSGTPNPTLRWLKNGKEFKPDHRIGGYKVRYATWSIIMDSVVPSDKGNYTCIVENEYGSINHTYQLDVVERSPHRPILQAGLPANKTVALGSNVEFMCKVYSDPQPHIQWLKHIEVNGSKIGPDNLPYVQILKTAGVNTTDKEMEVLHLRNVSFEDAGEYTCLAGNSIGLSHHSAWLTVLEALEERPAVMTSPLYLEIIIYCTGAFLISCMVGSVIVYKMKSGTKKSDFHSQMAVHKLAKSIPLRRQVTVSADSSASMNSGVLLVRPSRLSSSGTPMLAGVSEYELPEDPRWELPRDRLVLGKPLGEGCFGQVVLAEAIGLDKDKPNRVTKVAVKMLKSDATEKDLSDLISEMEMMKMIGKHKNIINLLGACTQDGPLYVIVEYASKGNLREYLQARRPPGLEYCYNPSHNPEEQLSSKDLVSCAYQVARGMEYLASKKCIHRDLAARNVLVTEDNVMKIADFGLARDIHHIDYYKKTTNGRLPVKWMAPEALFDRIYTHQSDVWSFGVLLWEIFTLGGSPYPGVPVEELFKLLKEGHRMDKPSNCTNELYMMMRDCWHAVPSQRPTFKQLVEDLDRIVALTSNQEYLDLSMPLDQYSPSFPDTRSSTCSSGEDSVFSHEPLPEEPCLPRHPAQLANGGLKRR
UniProt P21802, whole entry, looked up: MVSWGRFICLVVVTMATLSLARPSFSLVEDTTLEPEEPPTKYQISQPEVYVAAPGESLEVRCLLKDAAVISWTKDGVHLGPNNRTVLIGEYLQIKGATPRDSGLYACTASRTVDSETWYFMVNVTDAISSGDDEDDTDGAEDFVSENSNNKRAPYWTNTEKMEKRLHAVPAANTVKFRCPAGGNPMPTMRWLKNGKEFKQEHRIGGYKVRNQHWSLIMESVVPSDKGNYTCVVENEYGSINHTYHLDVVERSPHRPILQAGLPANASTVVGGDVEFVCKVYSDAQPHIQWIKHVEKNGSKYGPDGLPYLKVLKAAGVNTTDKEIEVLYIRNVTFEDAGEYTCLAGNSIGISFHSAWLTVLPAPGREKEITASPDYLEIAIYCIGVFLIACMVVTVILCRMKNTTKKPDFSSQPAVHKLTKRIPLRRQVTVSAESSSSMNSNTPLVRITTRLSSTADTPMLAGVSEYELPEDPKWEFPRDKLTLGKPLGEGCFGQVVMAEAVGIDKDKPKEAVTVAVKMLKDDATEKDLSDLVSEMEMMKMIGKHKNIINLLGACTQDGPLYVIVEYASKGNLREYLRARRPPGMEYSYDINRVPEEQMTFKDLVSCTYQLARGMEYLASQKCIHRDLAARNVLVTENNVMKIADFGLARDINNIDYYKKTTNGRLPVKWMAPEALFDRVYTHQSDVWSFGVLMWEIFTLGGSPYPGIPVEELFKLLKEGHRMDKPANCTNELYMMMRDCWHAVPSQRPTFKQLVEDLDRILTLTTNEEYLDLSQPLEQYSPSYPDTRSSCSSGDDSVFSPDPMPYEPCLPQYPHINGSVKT
UniProt P36888, whole entry: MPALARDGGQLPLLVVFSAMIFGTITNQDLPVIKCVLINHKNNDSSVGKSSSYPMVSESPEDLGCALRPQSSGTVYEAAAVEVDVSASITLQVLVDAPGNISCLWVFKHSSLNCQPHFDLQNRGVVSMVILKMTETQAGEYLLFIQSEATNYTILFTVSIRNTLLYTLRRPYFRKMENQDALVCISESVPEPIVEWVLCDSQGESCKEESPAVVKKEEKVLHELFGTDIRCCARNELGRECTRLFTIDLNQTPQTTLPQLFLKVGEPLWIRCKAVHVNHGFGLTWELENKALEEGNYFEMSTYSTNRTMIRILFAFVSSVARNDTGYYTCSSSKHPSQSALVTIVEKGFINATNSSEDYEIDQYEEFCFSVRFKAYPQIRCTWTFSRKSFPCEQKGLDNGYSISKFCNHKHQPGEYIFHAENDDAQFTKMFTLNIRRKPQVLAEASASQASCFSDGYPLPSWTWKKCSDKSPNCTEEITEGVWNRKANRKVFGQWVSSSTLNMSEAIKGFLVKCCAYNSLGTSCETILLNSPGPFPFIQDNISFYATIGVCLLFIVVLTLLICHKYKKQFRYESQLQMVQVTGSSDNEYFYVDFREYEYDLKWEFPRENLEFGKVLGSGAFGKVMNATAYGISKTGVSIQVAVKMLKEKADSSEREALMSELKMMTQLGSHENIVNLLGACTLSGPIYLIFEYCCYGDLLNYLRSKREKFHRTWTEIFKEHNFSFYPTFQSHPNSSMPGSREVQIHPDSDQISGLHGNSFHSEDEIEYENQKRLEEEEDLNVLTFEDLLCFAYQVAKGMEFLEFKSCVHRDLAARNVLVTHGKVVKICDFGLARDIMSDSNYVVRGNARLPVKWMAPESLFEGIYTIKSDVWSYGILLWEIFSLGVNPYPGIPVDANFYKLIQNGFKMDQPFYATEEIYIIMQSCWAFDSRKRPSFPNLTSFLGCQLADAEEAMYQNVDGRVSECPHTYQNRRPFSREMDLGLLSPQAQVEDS
UniProt P06241, whole entry, looked up: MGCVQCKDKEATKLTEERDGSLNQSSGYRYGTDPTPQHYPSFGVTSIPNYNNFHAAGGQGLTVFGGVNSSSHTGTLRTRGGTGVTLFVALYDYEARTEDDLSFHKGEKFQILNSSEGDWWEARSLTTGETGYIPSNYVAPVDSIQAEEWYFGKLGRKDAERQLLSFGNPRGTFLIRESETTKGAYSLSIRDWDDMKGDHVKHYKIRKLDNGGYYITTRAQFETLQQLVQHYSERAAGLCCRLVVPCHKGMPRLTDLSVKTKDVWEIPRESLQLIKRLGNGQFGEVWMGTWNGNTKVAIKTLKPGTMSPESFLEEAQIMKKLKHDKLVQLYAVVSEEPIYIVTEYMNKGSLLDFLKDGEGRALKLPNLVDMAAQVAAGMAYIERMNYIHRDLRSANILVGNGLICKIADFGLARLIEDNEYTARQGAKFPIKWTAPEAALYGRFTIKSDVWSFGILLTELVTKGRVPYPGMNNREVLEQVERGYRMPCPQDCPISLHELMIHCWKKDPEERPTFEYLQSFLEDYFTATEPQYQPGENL
UniProt P49840: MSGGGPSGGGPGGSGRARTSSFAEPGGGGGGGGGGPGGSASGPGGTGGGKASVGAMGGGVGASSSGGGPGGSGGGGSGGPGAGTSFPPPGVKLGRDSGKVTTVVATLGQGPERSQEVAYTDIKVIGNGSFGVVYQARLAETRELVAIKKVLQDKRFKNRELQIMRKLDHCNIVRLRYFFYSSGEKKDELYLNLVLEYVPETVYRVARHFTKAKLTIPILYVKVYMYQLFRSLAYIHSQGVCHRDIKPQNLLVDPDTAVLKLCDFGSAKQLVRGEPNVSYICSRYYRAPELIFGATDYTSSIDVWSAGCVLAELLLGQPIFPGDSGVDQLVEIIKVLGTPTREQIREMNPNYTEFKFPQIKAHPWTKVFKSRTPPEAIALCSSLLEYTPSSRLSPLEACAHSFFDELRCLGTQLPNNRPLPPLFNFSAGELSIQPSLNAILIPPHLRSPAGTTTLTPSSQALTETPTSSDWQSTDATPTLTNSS

Tests used:
Experiment in all cases: kinase-Nluc reporter destabilization hit call (1 = scored as downregulated) (binary); higher = compound decreases kinase abundance
Settings in all cases: K562; 2-18 h
EGFR = EGFR (UniProt P00533)
EGFR_G719S = EGFR_G719S (UniProt P00533)
EGFR_G719S_T790M = EGFR_G719S_T790M (UniProt P00533)
EGFR_L718V = EGFR_L718V (UniProt P00533)
EGFR_L858R = EGFR_L858R (UniProt P00533)
EGFR_L861Q = EGFR_L861Q (UniProt P00533)
EGFR_T790M = EGFR_T790M (UniProt P00533)
EPHA2 = EPHA2 (UniProt P29317)
ERBB3 = ERBB3 (UniProt P21860)
[1] = molecular target: ERBB4_R711C (clone: ERBB4_mut) (UniProt Q15303)
ERN1 = ERN1 (UniProt O75460)
FGFR1 = FGFR1 (UniProt P11362)
FGFR2 = FGFR2 (UniProt P21802)
FGFR3 = FGFR3 (UniProt P22607)
FGR = FGR (UniProt P09769)
FLT3 = FLT3 (UniProt P36888)
FYN = FYN (UniProt P06241)
GSK3A = GSK3A (UniProt P49840)
HER2 = HER2 (UniProt P04626)
INSRR = INSRR (UniProt P14616)

Measured: kinase-Nluc reporter destabilization hit call

Nc1ncnc2c1ncn2[C@@H]1O[C@@H]2COP(O)(=S)O[C@H]2[C@H]1O (stereo not given in full) [Sp-cAMPS (sodium salt)] (10 µM)
inactive: EGFR 0 | EGFR_G719S 0 | EGFR_G719S_T790M 0 | EGFR_L718V 0 | EGFR_L858R 0 | EGFR_L861Q 0 | EGFR_T790M 0 | EPHA2 = 0 | ERBB3 = 0 | [1] 0 | ERN1 = 0 | FGFR1 = 0 | FGFR2 = 0 | FGFR3 = 0 | FGR 0 | FLT3 = 0 | FYN 0 | GSK3A 0 | HER2 = 0 | INSRR 0

CN(C)C(=O)c1ccc(Cn2c(C(=O)O)cc3c(Br)cc(Sc4ccc(Cl)c(Cl)c4)cc32)cc1 [Rheb inhibitor NR1] (10 µM)
inactive: EGFR 0 | EGFR_G719S 0 | EGFR_G719S_T790M 0 | EGFR_L718V 0 | EGFR_L858R 0 | EGFR_L861Q 0 | EGFR_T790M 0 | EPHA2 = 0 | ERBB3 = 0 | [1] 0 | ERN1 = 0 | FGFR1 = 0 | FGFR2 = 0 | FGFR3 = 0 | FGR 0 | FLT3 = 0 | FYN 0 | GSK3A 0 | HER2 = 0 | INSRR 0

NCCc1cn(S(=O)(=O)c2c(Cl)nc3sccn23)c2ccccc12 (10 µM)
inactive: EGFR 0 | EGFR_G719S 0 | EGFR_G719S_T790M 0 | EGFR_L718V 0 | EGFR_L858R 0 | EGFR_L861Q 0 | EGFR_T790M 0 | EPHA2 = 0 | ERBB3 = 0 | [1] 0 | ERN1 = 0 | FGFR1 = 0 | FGFR2 = 0 | FGFR3 = 0 | FGR 0 | FLT3 = 0 | FYN 0 | GSK3A 0 | HER2 = 0 | INSRR 0

COc1ccc2c(c[n+](C)c3c4cc5c(cc4ccc23)OCO5)c1OC [Chelerythrine (chloride)] (10 µM)
inactive: EGFR 0 | EGFR_G719S 0 | EGFR_G719S_T790M 0 | EGFR_L718V 0 | EGFR_L858R 0 | EGFR_L861Q 0 | EGFR_T790M 0 | EPHA2 = 0 | ERBB3 = 0 | [1] 0 | ERN1 = 0 | FGFR1 = 0 | FGFR2 = 0 | FGFR3 = 0 | FGR 0 | FLT3 = 0 | FYN 0 | GSK3A 0 | HER2 = 0 | INSRR 0

CC(=O)O[C@H]1[C@H]2[C@@H](OC(=O)Cc3ccccc3)[C@@H](C)C[C@]2(OC(C)=O)C(=O)/C(C)=C/[C@@H]2[C@H](CC[C@@]13CO3)C2(C)C [Euphorbiasteroid] (10 µM)
inactive: EGFR 0 | EGFR_G719S 0 | EGFR_G719S_T790M 0 | EGFR_L718V 0 | EGFR_L858R 0 | EGFR_L861Q 0 | EGFR_T790M 0 | EPHA2 = 0 | ERBB3 = 0 | [1] 0 | ERN1 = 0 | FGFR1 = 0 | FGFR2 = 0 | FGFR3 = 0 | FGR 0 | FLT3 = 0 | FYN 0 | GSK3A 0 | HER2 = 0 | INSRR 0

COc1ccc2c(c1OC)C(OC)N(C)c1c-2ccc2cc3c(cc12)OCO3 (stereo not given) [Angoline] (10 µM)
inactive: EGFR 0 | EGFR_G719S 0 | EGFR_G719S_T790M 0 | EGFR_L718V 0 | EGFR_L858R 0 | EGFR_L861Q 0 | EGFR_T790M 0 | EPHA2 = 0 | ERBB3 = 0 | [1] 0 | ERN1 = 0 | FGFR1 = 0 | FGFR2 = 0 | FGFR3 = 0 | FGR 0 | FLT3 = 0 | FYN 0 | GSK3A 0 | HER2 = 0 | INSRR 0

O=c1ccc2cc(O[C@@H]3O[C@H](CO)[C@@H](O)[C@H](O)[C@H]3O)c(O)cc2o1 [Esculin] (10 µM)
inactive: EGFR 0 | EGFR_G719S 0 | EGFR_G719S_T790M 0 | EGFR_L718V 0 | EGFR_L858R 0 | EGFR_L861Q 0 | EGFR_T790M 0 | EPHA2 = 0 | ERBB3 = 0 | [1] 0 | ERN1 = 0 | FGFR1 = 0 | FGFR2 = 0 | FGFR3 = 0 | FGR 0 | FLT3 = 0 | FYN 0 | GSK3A 0 | HER2 = 0 | INSRR 0

Cc1ccccc1-n1c(Cn2cnc3c(N)ncnc32)nc2cccc(C)c2c1=O (10 µM)
inactive: EGFR 0 | EGFR_G719S 0 | EGFR_G719S_T790M 0 | EGFR_L718V 0 | EGFR_L858R 0 | EGFR_L861Q 0 | EGFR_T790M 0 | EPHA2 = 0 | ERBB3 = 0 | [1] 0 | ERN1 = 0 | FGFR1 = 0 | FGFR2 = 0 | FGFR3 = 0 | FGR 0 | FLT3 = 0 | FYN 0 | GSK3A 0 | HER2 = 0 | INSRR 0

CC(C)=CC[C@@H](OC(=O)CC(C)(C)O)C1=CC(=O)c2c(O)ccc(O)c2C1=O [β-Hydroxyisovalerylshikonin] (2.5 µM)
inactive: EGFR 0 | EGFR_G719S 0 | EGFR_G719S_T790M 0 | EGFR_L718V 0 | EGFR_L858R 0 | EGFR_L861Q 0 | EGFR_T790M 0 | EPHA2 = 0 | ERBB3 = 0 | [1] 0 | ERN1 = 0 | FGFR1 = 0 | FGFR2 = 0 | FGFR3 = 0 | FGR 0 | FLT3 = 0 | FYN 0 | GSK3A 0 | HER2 = 0 | INSRR 0

C[S+]([O-])/C=C/CCN=C=S (stereo not given) [Sulforaphene] (10 µM)
inactive: EGFR 0 | EGFR_G719S 0 | EGFR_G719S_T790M 0 | EGFR_L718V 0 | EGFR_L858R 0 | EGFR_L861Q 0 | EGFR_T790M 0 | EPHA2 = 0 | ERBB3 = 0 | [1] 0 | ERN1 = 0 | FGFR1 = 0 | FGFR2 = 0 | FGFR3 = 0 | FGR 0 | FLT3 = 0 | FYN 0 | GSK3A 0 | HER2 = 0 | INSRR 0

CCCCCCCCCCCCCCCCOC[C@H](COP(=O)([O-])OCC[N+](C)(C)C)OC(C)=O (10 µM)
inactive: EGFR 0 | EGFR_G719S 0 | EGFR_G719S_T790M 0 | EGFR_L718V 0 | EGFR_L858R 0 | EGFR_L861Q 0 | EGFR_T790M 0 | EPHA2 = 0 | ERBB3 = 0 | [1] 0 | ERN1 = 0 | FGFR1 = 0 | FGFR2 = 0 | FGFR3 = 0 | FGR 0 | FLT3 = 0 | FYN 0 | GSK3A 0 | HER2 = 0 | INSRR 0

N#CC(C#N)=NNc1cccc(Cl)c1 (2.5 µM)
inactive: EGFR 0 | EGFR_G719S 0 | EGFR_G719S_T790M 0 | EGFR_L718V 0 | EGFR_L858R 0 | EGFR_L861Q 0 | EGFR_T790M 0 | EPHA2 = 0 | ERBB3 = 0 | [1] 0 | ERN1 = 0 | FGFR1 = 0 | FGFR2 = 0 | FGFR3 = 0 | FGR 0 | FLT3 = 0 | FYN 0 | GSK3A 0 | HER2 = 0 | INSRR 0

C[C@H]1CC[C@]2(NC1)O[C@H]1C[C@H]3[C@@H]4CC[C@H]5C[C@@H](O)CC[C@]5(C)[C@H]4CC[C@]3(C)[C@H]1[C@@H]2C [Tomatidine] (2 µM)
inactive: EGFR 0 | EGFR_G719S 0 | EGFR_G719S_T790M 0 | EGFR_L718V 0 | EGFR_L858R 0 | EGFR_L861Q 0 | EGFR_T790M 0 | EPHA2 = 0 | ERBB3 = 0 | [1] 0 | ERN1 = 0 | FGFR1 = 0 | FGFR2 = 0 | FGFR3 = 0 | FGR 0 | FLT3 = 0 | FYN 0 | GSK3A 0 | HER2 = 0 | INSRR 0

C/C=C(/C)C(=O)O[C@H]1[C@@H]2[C@H](C)C(=O)O[C@@H]2C[C@@H](C)[C@@H]2C=CC(=O)[C@]21C [Brevilin A] (2.5 µM)
inactive: EGFR 0 | EGFR_G719S 0 | EGFR_G719S_T790M 0 | EGFR_L718V 0 | EGFR_L858R 0 | EGFR_L861Q 0 | EGFR_T790M 0 | EPHA2 = 0 | ERBB3 = 0 | [1] 0 | ERN1 = 0 | FGFR1 = 0 | FGFR2 = 0 | FGFR3 = 0 | FGR 0 | FLT3 = 0 | FYN 0 | GSK3A 0 | HER2 = 0 | INSRR 0

2 successive compounds from above:
C[C@H]1CC[C@]2(NC1)O[C@H]1C[C@H]3[C@@H]4CC[C@H]5C[C@@H](O)CC[C@]5(C)[C@H]4CC[C@]3(C)[C@H]1[C@@H]2C [Tomatidine] (2 µM)
inactive: EGFR 0 | EGFR_G719S 0 | EGFR_G719S_T790M 0 | EGFR_L718V 0 | EGFR_L858R 0 | EGFR_L861Q 0 | EGFR_T790M 0 | EPHA2 = 0 | ERBB3 = 0 | [1] 0 | ERN1 = 0 | FGFR1 = 0 | FGFR2 = 0 | FGFR3 = 0 | FGR 0 | FLT3 = 0 | FYN 0 | GSK3A 0 | HER2 = 0 | INSRR 0

C/C=C(/C)C(=O)O[C@H]1[C@@H]2[C@H](C)C(=O)O[C@@H]2C[C@@H](C)[C@@H]2C=CC(=O)[C@]21C [Brevilin A] (2.5 µM)
inactive: EGFR 0 | EGFR_G719S 0 | EGFR_G719S_T790M 0 | EGFR_L718V 0 | EGFR_L858R 0 | EGFR_L861Q 0 | EGFR_T790M 0 | EPHA2 = 0 | ERBB3 = 0 | [1] 0 | ERN1 = 0 | FGFR1 = 0 | FGFR2 = 0 | FGFR3 = 0 | FGR 0 | FLT3 = 0 | FYN 0 | GSK3A 0 | HER2 = 0 | INSRR 0
